Assay results from PubChem BioAssay AID1259354 (Paczesny and Yang Labs, IUPUI and University of Michigan, 2018).
Values joined by “and” are separate entries in the source; they are usually repeats but may differ in a detail not shown here. Equal entries are not always repeated. The campaign covered roughly 78,000 compounds. About 1,800 (2.3%) were called active. This list was built around the results that the source calls inconclusive (neither active nor inactive); the mix of calls is not that of the screen. No stated cut-off is given here; in the data, active means inhibition above about 30%; inconclusive means mostly about 10% to 28%; inactive means weaker than that. A structure can be active in one record and inactive in another.

Chains of the proteins cited; added tags and fusions are not shown. Lines headed by an entry give the natural chain unless they say otherwise; changes in a name come on top.
UniProt Q01638: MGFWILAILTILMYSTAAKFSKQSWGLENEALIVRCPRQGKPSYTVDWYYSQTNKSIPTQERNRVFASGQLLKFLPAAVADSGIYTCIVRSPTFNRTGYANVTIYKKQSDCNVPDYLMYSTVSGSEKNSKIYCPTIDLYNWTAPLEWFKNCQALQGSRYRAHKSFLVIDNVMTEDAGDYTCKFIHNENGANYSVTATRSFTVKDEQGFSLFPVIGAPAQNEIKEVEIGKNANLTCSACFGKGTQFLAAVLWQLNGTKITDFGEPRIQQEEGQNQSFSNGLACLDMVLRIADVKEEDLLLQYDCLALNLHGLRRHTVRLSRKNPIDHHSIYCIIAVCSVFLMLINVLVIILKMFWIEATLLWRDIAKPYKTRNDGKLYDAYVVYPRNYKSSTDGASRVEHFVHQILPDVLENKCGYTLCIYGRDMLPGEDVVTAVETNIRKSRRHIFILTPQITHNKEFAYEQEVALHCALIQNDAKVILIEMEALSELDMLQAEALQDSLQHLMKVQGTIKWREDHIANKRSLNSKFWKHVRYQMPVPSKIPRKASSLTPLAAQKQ

target: Interleukin-1 receptor-like 1 (Homo sapiens) (UniProt Q01638); experiment: blocks human ST2 binding to IL-33, primary screen, biochemical, AlphaLISA (AID 1259354); settings: AlphaLISA ST2-Fc/biotin-IL-33 interaction, 1 h; at 17 µM, hits give high values

SMILES	inhibition	outcome
Oc1ccc(O)c([S+]2CCCCC2)c1	inconclusive: 11%	
C#CCN(Cc1ccco1)C(=O)c1ccccc1N1CCOCC1	inconclusive: 21%	
O=C(CNCC1(c2ccc(F)cc2)CCOC1)Nc1cnccn1 (stereo not given)	inconclusive: 14%	
Cc1cc(Nc2ccc(N(C)C)cc2)c2cc(Cl)ccc2n1	active: 39%	
CCC1=NOC(CNc2nccc(CCC(F)(F)F)n2)C1 (stereo not given)	inactive	
Cc1occc1C(=O)N(C)C(Cc1ccccc1)C1CCN(C(=O)c2n[nH]c3c2CCCC3)CC1 (stereo not given)	inconclusive: 25%	
CCc1nnc(CN(CC)C(=O)c2cnn3c2CCCC3)o1	inactive	
COC[C@H]1CCCN1C(=O)C[C@@H]1O[C@H](CNC(=O)C2CC2)[C@@H](O)[C@H]1O	inconclusive: 12%	
OCC(O)CN1CCc2ccccc21 (stereo not given)	inconclusive: 15%	
COc1ccc(CN2CCCN(CC(=O)Nc3ccc4c(c3)OCO4)S2(=O)=O)cc1	inconclusive: 14%	
CCN(CC)c1ccc(/C=C2\NC(=O)NC2=O)cc1	inconclusive: 18%	
NS(=O)(=O)c1ccc(NC(=O)c2ccccc2Br)cc1	inconclusive: 20%	
COc1ccc(-c2ccnc(N[C@H]3CO[C@H]4[C@@H]3OC[C@H]4OC(=O)Nc3cccc(C(F)(F)F)c3)n2)cc1	inconclusive: 23%	
CC(=O)Nc1ccc2nc(Nc3nc4ccc(F)cc4s3)sc2c1	inactive	
COc1ccc(-c2cc(N3CCN(S(=O)(=O)c4cc(F)ccc4F)CC3)ncn2)cc1	inactive	
Cc1ccc(C)c(N2CCN(Cc3cc([N+](=O)[O-])ccc3O)CC2)c1	inconclusive: 12%	
COc1ccc(C2=NN(C(=O)c3cccs3)C(c3ccc(OC)cc3)C2)cc1 (stereo not given)	inconclusive: 20%	
Cc1nc(-c2ccc(CN3CCNCC3)cc2)[nH]c(=O)c1C	inconclusive: 22%	
Oc1ccc(CN2CCOc3c(O)cc(-c4cccc(Cl)c4)cc3C2)cc1	inconclusive: 11%	
O=c1[nH]c2ccc(S(=O)(=O)Nc3ccccc3F)cc2[nH]c1=O	inconclusive: 10%	
O=C(c1cccnc1)N1CC[C@H](c2nc3ccccc3s2)C1	inconclusive: 10%	
COc1ccc(N2CCN(Cc3ccoc3)CC2)cc1	inactive	
Cc1c(C(=O)N2CCN(c3ccccc3)CC2)sc2nc(-c3ccccc3)cn12	inconclusive: 22%	
COc1ccc(-c2ccnc(N)c2)c(C)c1	inconclusive: 18%	
Nc1c(Oc2ccccc2)c(Oc2ccccc2)c(N)c2c1C(=O)c1ccccc1C2=O	active: 92%	
CCSc1nc(CC(=O)NCc2csc3c2CCCC3)cs1	inconclusive: 20%	

SMILES	inhibition	outcome
O=C(CCn1cc(Cl)cn1)N1CCCC(O)(CO)CC1 (stereo not given)	inactive	
Cc1ccccc1/C=C1\Sc2ccccc2N(CC(=O)NCC2CCCO2)C1=O (stereo not given)	inconclusive: 14%	
CCCN(C)Cc1c(C(=O)N2CCN(C3CCCCC3)CC2)nc2ccccn12	inactive	
O=C(Nc1ccc([N+](=O)[O-])cc1)c1cccc(S(=O)(=O)N(CCO)CCO)c1	inactive	
COC(=O)C1C(=O)C2=C(CC1C)NC(C)=C(C(=O)OC1CCCCCC1)C2c1ccc(F)cc1 (stereo not given)	inconclusive: 12%	
O=C(OCCCN1C(=O)c2ccccc2C1=O)c1ccc(Cl)cc1	inactive	
COC(=O)C1=C(N)OC2=C(C(=O)CCC2)C1c1ccc(Br)cc1 (stereo not given)	inactive	
CC(C)c1ocnc1-c1nc(CC2CCN(C)CC2)no1	inconclusive: 15%	
O=S(=O)(NC[C@H]1O[C@@H](CO)[C@@H](O)[C@H]1N1CCN(c2ccccn2)CC1)c1ccccc1	inconclusive: 26%	
COCc1nc(CNC(=O)c2c(C)c3cccc(C)c3n2C)no1	inactive	
Cc1ccccc1C(C(=O)N1CCCOCC1)N(C)C (stereo not given)	inconclusive: 24%	
CSc1ccc(-c2nc(SCC(=O)NCc3ccco3)c(-c3ccc(F)cc3)[nH]2)cc1	inactive	
CN(C)S(=O)(=O)c1ccc(C(=O)N=c2sc3cc(F)ccc3n2C)cc1	inactive	
Cc1ccsc1-c1cn(CC2(Cn3ccnc3C)CC2)nn1	inconclusive: 15%	
O=C(CCCn1c(=O)c2sccc2n(Cc2ccc(F)cc2)c1=O)NCc1ccco1	active: 30%	
CCN(CC)CCCNC(=O)c1cc2c(-c3ccc(Cl)cc3)nn(C)c2s1	inconclusive: 13%	
CCc1cnc(-c2c[nH]c3ccc(C)cc23)nc1	inconclusive: 22%	
Cc1cccc(NC(c2ccc(Cl)cc2)c2ccc3cccnc3c2O)n1 (stereo not given)	inconclusive: 26%	
Cc1c(CN(C)C(=O)CCn2c(C)cccc2=O)[nH]c2ccccc12	inconclusive: 16%	
C(=C\c1ccccc1)/Sc1cccc2cccnc12	inconclusive: 13%	
O=C(CNS(=O)(=O)c1cccs1)N1CCN(c2cccc(Cl)c2)CC1	inconclusive: 17%	
CCCC(C(=O)OCCN(CC)CC)(c1ccccc1)c1ccccc1	inconclusive: 19%	
CC(C)c1ccc(NC(=O)CN2N=NC3C(=O)N(c4ccc(Cl)cc4)C(=O)C32)cc1 (stereo not given)	inactive	
O=C(CC(=O)Nc1nc(C23CC4CC(CC(C4)C2)C3)cs1)NCc1ccccc1	inconclusive: 12%	
COc1ccc(CN2CCN(c3ccc([N+](=O)[O-])cc3)CC2)cc1O	inconclusive: 22%	
c1ccc2c3c([nH]c2c1)-c1nonc1CC3	inconclusive: 10%	

SMILES	inhibition	outcome
Cc1cccc(S(=O)(=O)NCCn2c(CCc3ccccc3)nc3cccnc32)c1	inconclusive: 12%	
CCOC(=O)c1ccc(Nc2ncnc3c2cnn3-c2ccc(Cl)cc2)cc1	inactive	
Cc1cc(N2CCN(C)CC2)nc2ccc(NC(=O)c3cc(-c4ccco4)nc4ccccc34)cc12	inconclusive: 11%	
CCN(CC)CCCNC(=O)c1cc(-c2ccc(Br)s2)nc2ccccc12	inconclusive: 19%	
O=C(NCc1cccnc1)c1ccc2nc3sc4c(c3c(=O)n2c1)CCCC4	inconclusive: 12%	
Cc1cccc(CNC(=O)NCc2cnn3ccccc23)c1	inconclusive: 16%	
CCOC(=O)C1CCCN(Cc2nc(C3(c4ccc(C)cc4)CCCC3)no2)C1 (stereo not given)	inactive	
CSc1nc2c(c(=O)n(C)c(=O)n2C)n1C	inconclusive: 10%	
CCC(NC(=O)Cc1cn2ccsc2n1)c1nc(C)c(C)s1 (stereo not given)	inconclusive: 26%	
COC(=O)c1cc(-c2cccc(Br)c2)no1	inconclusive: 11%	
C=CCc1ccccc1OCC(O)CN1CCN(c2ccc(F)cc2)CC1 (stereo not given)	inconclusive: 20%	
CS(=O)(=O)N1CCC(C(=O)NCCN2CCc3ccccc3C2)CC1	inconclusive: 13%	
COc1cc(OC)c(OC)cc1CN1CCC(CCC(=O)NCC2CCCO2)CC1 (stereo not given)	inactive	
Cc1[nH]cnc1-c1nccn1Cc1cccc(-n2cccn2)c1	inconclusive: 23%	
CC1(C)C[C@H](NCc2ccc(CO)o2)[C@@]2(CCC(=O)N3CCOCC3)CC[C@](C)(O)C[C@@H]12	inconclusive: 12%	
CC(C)c1nnsc1CNC1CCC2(CCNCC2)CC1	inconclusive: 12%	
CS(=O)(=O)N1CCN(c2ccc(F)cc2)CC1	inactive	
N#Cc1c(-c2ccccc2)nc(SCC(=O)Nc2ccc(F)c(F)c2)[nH]c1=O	inactive	
Cc1c(C(=O)NC2CCCCC2)oc2ccc(S(=O)(=O)N3CCCCCC3)cc12	inactive	
COc1ccc(-n2nc3c(c2NC(=O)c2cc(Br)ccc2Cl)CSC3)cc1	inactive	
CCSc1nc2c(c(=O)n1-c1ccc(C)cc1)SCC2	active: 33%	inactive
CNC(=O)C(C)N(C)C(=O)CNS(=O)(=O)c1ccc(F)c(C)c1 (stereo not given)	inconclusive: 10%	
CCN(CCN1CCOCC1)C(=O)c1nc2cccc(C)n2c1F	inconclusive: 17%	
CCC(NC(=O)c1cc(NC(C)=O)ccc1Cl)c1cc(C)ccn1 (stereo not given)	inactive	
CCOC(=O)c1sc2ncnc(N(CC)CC)c2c1C	inconclusive: 13%	
Ic1ccc(NCc2cn3ccccc3n2)cc1	inactive	

Gathered by group: those above with a furan ring, fused or not (eight)
SMILES	inhibition	outcome
C#CCN(Cc1ccco1)C(=O)c1ccccc1N1CCOCC1	inconclusive: 21%	
Cc1occc1C(=O)N(C)C(Cc1ccccc1)C1CCN(C(=O)c2n[nH]c3c2CCCC3)CC1 (stereo not given)	inconclusive: 25%	
COc1ccc(N2CCN(Cc3ccoc3)CC2)cc1	inactive	
CSc1ccc(-c2nc(SCC(=O)NCc3ccco3)c(-c3ccc(F)cc3)[nH]2)cc1	inactive	
O=C(CCCn1c(=O)c2sccc2n(Cc2ccc(F)cc2)c1=O)NCc1ccco1	active: 30%	
Cc1cc(N2CCN(C)CC2)nc2ccc(NC(=O)c3cc(-c4ccco4)nc4ccccc34)cc12	inconclusive: 11%	
CC1(C)C[C@H](NCc2ccc(CO)o2)[C@@]2(CCC(=O)N3CCOCC3)CC[C@](C)(O)C[C@@H]12	inconclusive: 12%	
Cc1c(C(=O)NC2CCCCC2)oc2ccc(S(=O)(=O)N3CCCCCC3)cc12	inactive	

Going on with the list:

SMILES	inhibition	outcome
O[C@@H]1CN(c2nc(-c3ccccc3)no2)CC[C@H]1c1ccc2c(c1)OCO2	inconclusive: 12%	
CCOc1c(Br)cc(C(c2c(C)[nH][nH]c2=O)c2c(C)[nH][nH]c2=O)cc1OC	inactive	
O=C(NCC1OCCc2ccccc21)c1cnn2c1CCCC2 (stereo not given)	inconclusive: 17%	
Cc1nn(C)c(C)c1CN(C(=O)CC1C(=O)NCCN1Cc1cccs1)C1CC1 (stereo not given)	inconclusive: 14%	
CCOC(=O)c1nn(Cc2ccccc2)c2c1CN(C(=O)c1ocnc1C)CC2	inconclusive: 17%	
O=c1[nH]c2cc(Cl)ccc2c(O)c1-c1ccc(Oc2ccccc2)cc1	inconclusive: 18%	
CC1CC(=O)C2=C(C1)OC(N)=C(C#N)C2c1ccc(F)cc1 (stereo not given)	inactive	
Cc1ccc(NC(=O)CN(c2cccc(C)c2C)S(=O)(=O)c2ccccc2)c(C)c1	inconclusive: 10%	
COc1ccc(OC)c(NC(=O)c2cc3cc4ccc(OC)cc4nc3o2)c1	inconclusive: 16% and inconclusive: 10%	
NCCOCc1ccc(-c2cc3ccccc3o2)cc1	inactive	
O=S(=O)(c1cccc2nsnc12)N1CCC(n2c(Cc3ccccc3)nc3cccnc32)CC1	active: 97%	
O=C(CSc1nc2ccccc2o1)c1ccc(Br)cc1	inconclusive: 12%	
Fc1cccc2c1NC(c1ccc(Cl)cc1)C1CC=CC21 (stereo not given)	inconclusive: 20%	
CC(C)N(C)Cc1nnnn1CC(=O)N1CCC(N2CCSCC2)CC1	inconclusive: 11%	
O=C1C(=O)N(CN2CCCCC2)c2ccc(Br)cc21	inconclusive: 12%	
CCn1c(C(=O)OC)c(NC(C)=O)c2cc(NCc3cc(F)cc(F)c3)cnc21	inconclusive: 29%	
C=CCc1nc2c(c(=O)n1Cc1ccccc1)C(C)(C)Cc1ccccc1-2	inactive	
COC(=O)c1cc2n(n1)CCN(C(=O)CCN1CCCCO1)C2	inconclusive: 12%	
Cc1ccc2c(C)nc(NC3=NC(C(=O)Nc4ccc(Br)cc4)CC(=O)N3)nc2c1 (stereo not given)	inconclusive: 10%	
Cc1cc(Cl)ccc1NC1=NS(=O)(=O)c2cc([N+](=O)[O-])ccc21	inconclusive: 10%	
Cn1c(=O)cc(C(=O)N2CCC(c3ccc(C(=O)O)cc3)C2)c2ccccc21 (stereo not given)	inconclusive: 20%	
O=c1c2sccc2n(Cc2ccccc2)c(=O)n1-c1ccc(F)cc1F	inconclusive: 10%	
NC(=O)[C@H](Cc1ccccc1)N1Cc2ncccc2C1=O	inconclusive: 15%	
Clc1ccc(C(c2ccccc2)n2ccnc2-c2cnc[nH]2)cc1 (stereo not given)	inconclusive: 19%	
Cc1ccc(CN(c2ccc(C(=O)Nc3ccccc3F)cc2)S(C)(=O)=O)cc1	inactive	
NC(=O)CO[C@@H]1CO[C@H]2[C@@H]1OC[C@@H]2NCc1ccccc1	inconclusive: 12%	
